According to PubChem BioAssay AID2685 (National Center for Advancing Translational Sciences (NCATS), 2010):
Some of the results follow. The main result of the screen is listed elsewhere. These columns were measured beside it and carry no call. The list favours compounds with an active or inconclusive main result. The note in brackets gives the kind of curve behind each potency; many fits are weak.

Experiment: qHTS Assay for Lipid Storage Modulators in Drosophila S3 Cells;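 for cell number change: cells counted by Cell Tracker Red CMTPX staining in the red channel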
Settings: BODIPY lipid droplet fluorescence, 18-24 h; for cell number change: measured here: cell count max response, cells fed with added oleic acid
Method in brief: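 Drosophila S3 cells got compounds at several concentrations plus oleic acid (400 uM solution). Laser-scanning cytometry with 488 nm excitation read lipid droplets at 500-530 nm and cells at 575-640 nm. Percent activity was relative to 20 uM Triacsin C.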

[1] = measured here: cell number channel AC50, cells fed with added oleic acid
[2] = measured here: lipid fluorescence (Fed channel) AC50, cells fed with added oleic acid

COC(=O)c1ccccc1NC(=O)c1cccc(COc2ccccc2Cl)c1
cell number change: 49.1%
AC50 [1]: 4.61 µM [rising, full curve, poor fit]
AC50 [2]: 6.51 µM [rising, full curve]

COc1ccc(NC(=O)C2CC(c3cc(OC)c(OC)c(OC)c3)=NO2)cc1OC (stereo unspecified)
AC50 [1]: 2.91 µM [rising, partial curve]
AC50 [2]: 4.61 µM [rising, partial curve]

CCn1c(COc2ccccc2C)nnc1SCc1nc2ccccc2c(=O)[nH]1
AC50 [1]: 0.461 µM [rising, full curve, poor fit]
AC50 [2]: 0.411 µM [rising, full curve, poor fit]

CCOc1ccccc1C(=O)NC(C(=O)Nc1cccnc1)C(C)C (stereo unspecified)
AC50 [1]: 0.092 µM [rising, partial curve, poor fit]

CC(C)c1ccc(C(=O)NC(=S)NCc2cccnc2)cc1
cell number change: -7.78%

O=C1NC(c2ccc3c(c2)OCO3)Oc2ccccc21 (stereo unspecified)
cell number change: 36.6%
AC50 [1]: 0.00461 µM [rising, full curve, poor fit]
AC50 [2]: 0.0731 µM [falling, full curve, poor fit]

CC(C)Oc1ccccc1NC(=O)CSc1nccn1C
cell number change: -15.3%

Cc1ccc(-c2ccccc2NC(=O)CS(=O)CC(=O)Nc2ccc(C)c(Cl)c2)o1 (stereo unspecified)
AC50 [2]: 6.51 µM [falling, single point]

CCCn1c(SCC(=O)Nc2cc(Cl)ccc2OC)n[nH]c1=O
AC50 [1]: 0.291 µM [rising, partial curve, poor fit]

O=C(Nc1ccnn1C1CCN(C(=O)c2cccc(C(F)(F)F)c2)CC1)C1CC1
cell number change: 0.289%

O=C(CN1CCOCC1)Nc1ncc(Cc2ccccc2Cl)s1
AC50 [2]: 0.13 µM [falling, full curve, poor fit]

COc1ccc(C(=O)N/C(=C\c2ccccc2)C(=O)Nc2cccc(C(=O)O)c2)cc1
cell number change: 16.7%
AC50 [2]: 0.103 µM [rising, full curve, poor fit]

COc1ccccc1NC(=O)/C=C/c1ccc(OC)c(S(=O)(=O)N2CCOCC2)c1
cell number change: 22.1%
AC50 [2]: 0.164 µM [rising, full curve, poor fit]

CN1CCCC(C(=O)C(C#N)c2ccccc2)C1 (stereo unspecified)
AC50 [2]: 25.9 µM [falling, partial curve, poor fit]

Cc1cc(C(=O)Nc2cccc3ncccc23)no1
cell number change: 13.7%
AC50 [2]: 0.651 µM [falling, single point]

Cc1ccc(-n2cc(CNCCc3ncc(C)[nH]3)c(-c3ccc(F)cc3)n2)cc1
cell number change: -53.6%
AC50 [1]: 18.4 µM [falling, single point]
AC50 [2]: 29.1 µM [falling, single point]

COc1cc(OC)c(NS(=O)(=O)c2coc(C(N)=O)c2)cc1Cl
cell number change: -8.72%

CCn1c(SCC(=O)N2CC(=O)Nc3ccccc32)nnc1-c1ccoc1C
cell number change: 4.96%
AC50 [2]: 20.6 µM [rising, single point]

CCN(CC)c1ccc(-c2c(C#N)c(N)nc(OC)c2C#N)cc1
cell number change: -21.7%
AC50 [2]: 0.461 µM [rising, full curve, poor fit]

Cc1cc(C)c2c(CCl)cc(=O)oc2c1
cell number change: 13.1%
AC50 [2]: 10.3 µM [rising, partial curve, poor fit]

COCC(=O)NC1CC(C)(C)Cc2c1cnn2-c1ccc(F)cc1 (stereo unspecified)
cell number change: 0.549%

CN(C)c1ccc(C(=O)N2CCNC(=O)C2CC(=O)Nc2ccc(F)cc2)cc1 (stereo unspecified)
cell number change: 4.2%
AC50 [1]: 2.31 µM [rising, partial curve]
AC50 [2]: 3.26 µM [rising, full curve]

Cn1c(=O)c(Oc2ccc(Cl)cc2)c(O)c2ccccc21
cell number change: 7.63%
AC50 [2]: 0.13 µM [rising, full curve, poor fit]

C/C(CC(C)(C)C1CCCCC1)=N\NC(N)=S
cell number change: -72.4%
AC50 [1]: 20.6 µM [falling, single point]
AC50 [2]: 29.1 µM [falling, single point]

Cn1c(=O)c2c(nc(NCc3ccco3)n2Cc2ccccc2Cl)n(C)c1=O
cell number change: -29.5%
AC50 [1]: 2.31 µM [falling, full curve, poor fit]

COC(=O)c1ccc(N2CN=C(c3ccc(C)cc3)NC2=S)cc1
cell number change: 47.6%
AC50 [1]: 29.1 µM [rising, single point]

CCC(O)c1cc2c(cc1NC(=O)c1ccc(C)cc1)OCCO2 (stereo unspecified)
cell number change: 16%
AC50 [2]: 29.1 µM [falling, single point]

Cn1c(SCc2ccccc2)nnc1-c1c[nH]c2ccccc12
AC50 [2]: 6.51 µM [rising, single point]

Cc1ccc(OCC(=O)N(Cc2ccccc2)c2c(N)n(Cc3ccccc3)c(=O)[nH]c2=O)c(C)c1
cell number change: -75.1%
AC50 [1]: 18.4 µM [falling, partial curve]
AC50 [2]: 0.00461 µM [falling, full curve, poor fit]

Cc1ccc(C(=O)c2cccc(N)c2)cc1C
cell number change: 47.8%
AC50 [1]: 8.2 µM [rising, partial curve]
AC50 [2]: 7.31 µM [rising, partial curve]

Cc1ccc(-c2noc(C3CCCN(S(=O)(=O)c4ccc(S(=O)(=O)N(C)C)cc4)C3)n2)o1 (stereo unspecified)
cell number change: 33.7%
AC50 [1]: 29.1 µM [rising, single point]
AC50 [2]: 29.1 µM [rising, single point]

COC(=O)c1cc(S(=O)(=O)Nc2nn(C)c3ccccc23)oc1C
cell number change: 1.19%
AC50 [1]: 0.58 µM [falling, single point]

Cc1ccn(S(=O)(=O)c2ccc(N3CCCC3=O)cc2)n1
cell number change: 16.5%
AC50 [2]: 29.1 µM [rising, single point]

CCSc1cc(C)nc2c(-c3ccc(Cl)cc3)c(C)nn12
AC50 [1]: 0.731 µM [rising, full curve]
AC50 [2]: 1.3 µM [rising, full curve]

CC(c1ccncn1)N(C)C(=O)c1ccc2oc(Cc3ccccc3)nc2c1 (stereo unspecified)
cell number change: -16.8%
AC50 [2]: 23.1 µM [rising, single point]

CCn1cc(C(=O)NCc2cccc(F)c2)c(=O)c2cc(F)c(N3CCN(C(=O)c4ccco4)CC3)cc21
cell number change: 1.54%

CCC(C)C(NC(=O)[C@@H](NC(=O)c1ccccc1F)C(C)C)C(=O)OC (stereo partly specified)
cell number change: 9.78%

Cn1cc(/C=C(\C#N)C(=O)Nc2cccc([N+](=O)[O-])c2)c2ccccc21
cell number change: -40.5%
AC50 [1]: 20.6 µM [falling, single point]
AC50 [2]: 20.6 µM [falling, single point]

Cc1cc(NCCc2ccc(Cl)cc2)n2ncnc2n1
cell number change: -3.25%
AC50 [2]: 0.0651 µM [falling, partial curve, poor fit]

O=C(O)c1ccc(Cn2cc(C(F)(F)F)ccc2=O)cc1
cell number change: -34.6%
AC50 [2]: 29.1 µM [falling, single point]

CC(=O)c1ccc(-n2nnnc2SCC(=O)NC2CCCCC2)cc1
cell number change: 2.42%
AC50 [2]: 6.51 µM [falling, single point]

O=C(CN1CCN(C(=O)c2ccccc2)CC1)Nc1ccc(Cl)cc1F
cell number change: 16.5%

Cc1ccc(CC(=O)O/N=C(\N)Cc2ccc([N+](=O)[O-])cc2)cc1
cell number change: -2.9%
AC50 [1]: 0.146 µM [falling, full curve, poor fit]
AC50 [2]: 0.146 µM [falling, single point]

O=C(NCC(c1ccco1)N1CCc2ccccc2C1)c1cccc(F)c1 (stereo unspecified)
cell number change: 21%
AC50 [2]: 6.51 µM [falling, single point]

COC(=O)Cn1c2ccc(OC)cc2c2nc3ccccc3nc21
cell number change: 104%
AC50 [1]: 2.59 µM [rising, full curve]
AC50 [2]: 5.17 µM [rising, full curve]

COc1ccc(C(=O)OCC(=O)N2CCOCC2)cc1S(=O)(=O)N1CCOCC1
cell number change: 9.81%
AC50 [2]: 0.00517 µM [rising, full curve, poor fit]

COc1cc(OC)cc(C(=O)Nc2ccc(CN3CCCCC3)cc2)c1
cell number change: 26.2%
AC50 [2]: 20.6 µM [rising, partial curve]

Cc1ccc(NC(=O)C(OC(=O)c2ccc(O)cc2)c2ccccc2)cc1Cl (stereo unspecified)
cell number change: -33.3%
AC50 [1]: 29.1 µM [falling, single point]

Cc1ccc(-n2c(=S)sc3c(=O)n(-c4ccc(F)cc4)c(SCC(=O)O)nc32)cc1C
cell number change: 36.6%
AC50 [1]: 29.1 µM [rising, single point]

Cc1ccc(N2CC(C(=O)Nc3ccc(S(=O)(=O)N4CCCC4)cc3)CC2=O)cc1C (stereo unspecified)
cell number change: 3.95%

COc1ccc(NC(=O)C2CCCN(c3c4c(nc5ncnn35)CCC4)C2)cc1 (stereo unspecified)
cell number change: -52.8%
AC50 [1]: 20.6 µM [falling, single point]
AC50 [2]: 10.3 µM [falling, partial curve]

O=S(=O)(c1ccc(Cl)s1)N1CCN(C/C=C/c2ccccc2)CC1
cell number change: -26.1%

CCN1CCN(CCCNC(=O)C2c3ccccc3C(=O)N(c3ccc(OC)cc3)C2c2ccc(OC)cc2)CC1 (stereo unspecified)
cell number change: -39.4%
AC50 [1]: 29.1 µM [falling, single point]

CC(OC(=O)C1CSC2(C)CCC(=O)N12)C(=O)Nc1cccc(C#N)c1 (stereo unspecified)
cell number change: -3.5%

CCOc1ccc([N+](=O)[O-])cc1CNC1CCCCCCC1
cell number change: -17.4%
AC50 [2]: 2.91 µM [falling, full curve]

Cc1cc(F)ccc1S(=O)(=O)Nc1ccc(O)c(Sc2ncn[nH]2)c1
cell number change: -12.2%
AC50 [2]: 20.6 µM [falling, single point]

CC1CCCC(NC(=O)COC(=O)c2cc(S(=O)(=O)N3CCCCC3)ccc2N2CCOCC2)C1C (stereo unspecified)
AC50 [2]: 0.13 µM [falling, full curve, poor fit]

Cc1c(C)n(Cc2ccc(F)cc2)c2ccc(C(=O)NCCN3CCOCC3)cc12
AC50 [2]: 6.51 µM [rising, single point]

O=C1C2CCCN2C(=O)N1CCCCN1CCN(c2ccc(F)cc2)CC1 (stereo unspecified)
cell number change: 2.08%
AC50 [2]: 32.6 µM [falling, single point]
